One molecule from CN112538115A can be followed below.

Protein sequences, listed by entry. Tags and fused reporters are not part of them. Residues count along the entry.
UniProt Q02223, residues 1-54: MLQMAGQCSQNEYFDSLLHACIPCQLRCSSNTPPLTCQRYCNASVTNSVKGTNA

These are yes or no findings as the source states them, for the method shown. Some binding calls cover weakened binding; strength is not graded here.

This assay deals with 人BCMA-His抗原 (ACRO, Cat#BCA-H522y) (human) (UniProt Q02223). Description: indirect ELISA, human BCMA-His coated at 2 ug/ml, detection with HRP goat anti-human Fc gamma.

B1: BCMA Benchmark1 (antibody sequence of GSK2857916, Glaxo Smith Kline) (antibody, human IgG1, kappa, V domains shown)
VH: QVQLVQSGAEVKKPGSSVKVSCKASGGTFSNYWMHWVRQAPGQGLEWMGATYRGHSDTYYNQKFKGRVTITADKSTSTAYMELSSLRSEDTAVYYCARGAIYDGYDVLDNWGQGTLVTVSS
VL: DIQMTQSPSSLSASVGDRVTITCSASQDISNYLNWYQQKPGKAPKLLIYYTSNLHSGVPSRFSGSGSGTDFTLTISSLQPEDFATYYCQQYRKLPWTFGQGTKLEIKR
As to B1, the binding result is reported as “binds”.
